Laboratory results reported in the supplement of paper PMC12819154, “High-throughput peptide-centric local stability assay extends protein–ligand identification to membrane proteins, tissues and bacteria” (Nature Structural & Molecular Biology, 2025).
Some of the results follow. Most values lie at the level of the controls, where differences are scatter.

Protein sequences, listed by entry. Tags and fused reporters are not part of them. Lines headed by an entry give the natural chain unless they say otherwise; changes in a name come on top.
UniProt Q96JB3: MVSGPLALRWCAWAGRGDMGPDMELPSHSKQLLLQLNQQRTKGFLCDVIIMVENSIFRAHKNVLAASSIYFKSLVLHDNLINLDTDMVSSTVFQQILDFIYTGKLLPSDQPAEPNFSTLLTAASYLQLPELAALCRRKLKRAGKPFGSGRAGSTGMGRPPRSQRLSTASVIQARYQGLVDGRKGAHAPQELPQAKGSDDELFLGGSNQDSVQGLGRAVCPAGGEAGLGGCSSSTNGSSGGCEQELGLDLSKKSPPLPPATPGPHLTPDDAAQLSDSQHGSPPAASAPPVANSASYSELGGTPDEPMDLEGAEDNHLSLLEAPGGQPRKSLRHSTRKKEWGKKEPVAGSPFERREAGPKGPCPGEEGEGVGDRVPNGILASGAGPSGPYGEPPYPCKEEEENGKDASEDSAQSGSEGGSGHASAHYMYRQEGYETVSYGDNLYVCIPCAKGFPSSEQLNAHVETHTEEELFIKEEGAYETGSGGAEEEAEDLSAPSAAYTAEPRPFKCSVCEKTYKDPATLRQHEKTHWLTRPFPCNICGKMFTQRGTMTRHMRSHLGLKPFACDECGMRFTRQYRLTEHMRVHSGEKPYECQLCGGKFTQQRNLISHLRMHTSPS
UniProt Q96S38: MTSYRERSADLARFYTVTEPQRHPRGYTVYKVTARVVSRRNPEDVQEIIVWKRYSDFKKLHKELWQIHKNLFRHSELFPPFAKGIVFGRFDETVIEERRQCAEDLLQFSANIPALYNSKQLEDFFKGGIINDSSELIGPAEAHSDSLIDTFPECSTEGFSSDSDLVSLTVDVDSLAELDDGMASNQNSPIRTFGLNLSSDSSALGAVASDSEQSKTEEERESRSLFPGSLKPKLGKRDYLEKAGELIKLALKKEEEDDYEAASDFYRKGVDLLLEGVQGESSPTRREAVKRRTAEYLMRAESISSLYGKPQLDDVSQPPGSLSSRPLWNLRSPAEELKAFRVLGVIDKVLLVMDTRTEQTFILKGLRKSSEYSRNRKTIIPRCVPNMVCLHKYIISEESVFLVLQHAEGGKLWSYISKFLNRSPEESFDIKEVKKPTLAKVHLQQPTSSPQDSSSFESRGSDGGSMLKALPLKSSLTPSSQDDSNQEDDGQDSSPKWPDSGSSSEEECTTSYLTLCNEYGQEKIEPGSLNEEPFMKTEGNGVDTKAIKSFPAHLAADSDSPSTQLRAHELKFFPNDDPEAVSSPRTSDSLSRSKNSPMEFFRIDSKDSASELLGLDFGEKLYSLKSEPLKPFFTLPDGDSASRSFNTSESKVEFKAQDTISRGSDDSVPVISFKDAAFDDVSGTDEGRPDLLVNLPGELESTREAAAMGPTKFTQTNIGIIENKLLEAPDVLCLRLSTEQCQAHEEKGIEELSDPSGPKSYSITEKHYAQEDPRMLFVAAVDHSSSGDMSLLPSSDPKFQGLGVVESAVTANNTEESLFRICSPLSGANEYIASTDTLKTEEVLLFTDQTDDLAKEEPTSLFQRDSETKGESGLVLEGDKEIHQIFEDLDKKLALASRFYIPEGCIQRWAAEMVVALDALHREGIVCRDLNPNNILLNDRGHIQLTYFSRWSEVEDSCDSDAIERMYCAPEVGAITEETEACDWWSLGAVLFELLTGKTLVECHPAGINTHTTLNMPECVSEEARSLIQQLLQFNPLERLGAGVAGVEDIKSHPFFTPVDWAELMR
UniProt Q96HY6: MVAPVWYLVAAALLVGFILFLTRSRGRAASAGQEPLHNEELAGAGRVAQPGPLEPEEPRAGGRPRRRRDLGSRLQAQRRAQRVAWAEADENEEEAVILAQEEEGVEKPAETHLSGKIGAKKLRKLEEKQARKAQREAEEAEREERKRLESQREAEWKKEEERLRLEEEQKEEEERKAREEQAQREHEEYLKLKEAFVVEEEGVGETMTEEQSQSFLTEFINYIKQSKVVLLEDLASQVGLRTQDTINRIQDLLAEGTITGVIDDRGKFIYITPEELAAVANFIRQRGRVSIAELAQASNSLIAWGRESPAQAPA
UniProt Q96RK4: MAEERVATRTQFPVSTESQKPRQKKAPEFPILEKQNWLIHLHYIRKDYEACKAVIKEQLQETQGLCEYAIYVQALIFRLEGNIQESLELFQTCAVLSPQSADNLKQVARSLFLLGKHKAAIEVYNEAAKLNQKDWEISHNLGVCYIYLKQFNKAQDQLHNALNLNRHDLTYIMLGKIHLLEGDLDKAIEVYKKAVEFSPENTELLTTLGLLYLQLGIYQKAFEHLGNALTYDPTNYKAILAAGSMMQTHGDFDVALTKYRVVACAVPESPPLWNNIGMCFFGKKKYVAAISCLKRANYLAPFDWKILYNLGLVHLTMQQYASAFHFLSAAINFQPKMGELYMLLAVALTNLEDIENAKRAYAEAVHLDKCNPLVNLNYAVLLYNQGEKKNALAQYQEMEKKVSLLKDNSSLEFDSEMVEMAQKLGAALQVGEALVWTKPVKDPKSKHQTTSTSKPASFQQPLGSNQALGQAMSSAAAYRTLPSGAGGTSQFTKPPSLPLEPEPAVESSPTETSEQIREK
UniProt Q96IY1: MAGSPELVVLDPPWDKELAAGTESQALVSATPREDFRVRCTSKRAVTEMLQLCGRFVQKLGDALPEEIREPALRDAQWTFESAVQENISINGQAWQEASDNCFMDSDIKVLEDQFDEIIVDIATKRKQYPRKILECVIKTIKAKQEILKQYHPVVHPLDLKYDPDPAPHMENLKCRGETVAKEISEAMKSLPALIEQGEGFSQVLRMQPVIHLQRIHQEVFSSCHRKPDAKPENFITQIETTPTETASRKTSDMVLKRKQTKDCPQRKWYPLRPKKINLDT
UniProt Q96JB5: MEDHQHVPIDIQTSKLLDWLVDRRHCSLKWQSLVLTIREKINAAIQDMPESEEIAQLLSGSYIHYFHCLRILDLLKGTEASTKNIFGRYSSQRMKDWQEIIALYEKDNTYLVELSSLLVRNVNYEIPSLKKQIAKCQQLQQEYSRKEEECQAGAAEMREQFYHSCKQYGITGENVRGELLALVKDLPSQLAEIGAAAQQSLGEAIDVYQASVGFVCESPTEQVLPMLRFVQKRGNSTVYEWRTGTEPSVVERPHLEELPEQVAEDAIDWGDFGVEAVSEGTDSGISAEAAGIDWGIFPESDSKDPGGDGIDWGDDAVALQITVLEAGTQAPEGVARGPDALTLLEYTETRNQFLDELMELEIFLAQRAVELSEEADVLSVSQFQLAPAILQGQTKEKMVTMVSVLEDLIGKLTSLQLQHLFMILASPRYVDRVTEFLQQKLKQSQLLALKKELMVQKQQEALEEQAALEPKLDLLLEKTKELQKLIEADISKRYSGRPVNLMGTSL
UniProt Q96PZ2, whole entry: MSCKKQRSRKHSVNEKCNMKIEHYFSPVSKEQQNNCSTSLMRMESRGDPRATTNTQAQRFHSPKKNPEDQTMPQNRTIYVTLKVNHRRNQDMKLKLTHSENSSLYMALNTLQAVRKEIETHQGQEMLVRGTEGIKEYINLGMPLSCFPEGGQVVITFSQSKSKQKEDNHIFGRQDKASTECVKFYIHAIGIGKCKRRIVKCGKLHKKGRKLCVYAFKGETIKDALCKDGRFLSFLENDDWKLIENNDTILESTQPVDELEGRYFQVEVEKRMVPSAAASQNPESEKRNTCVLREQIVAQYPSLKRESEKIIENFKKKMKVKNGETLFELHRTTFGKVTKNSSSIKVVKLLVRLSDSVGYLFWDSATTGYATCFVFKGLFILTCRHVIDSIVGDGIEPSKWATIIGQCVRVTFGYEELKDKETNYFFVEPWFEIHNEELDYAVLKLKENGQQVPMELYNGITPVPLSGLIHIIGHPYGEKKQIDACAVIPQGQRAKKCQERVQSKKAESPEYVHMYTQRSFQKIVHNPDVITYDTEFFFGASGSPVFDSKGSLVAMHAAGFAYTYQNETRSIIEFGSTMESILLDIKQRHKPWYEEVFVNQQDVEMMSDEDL
UniProt Q96GV9: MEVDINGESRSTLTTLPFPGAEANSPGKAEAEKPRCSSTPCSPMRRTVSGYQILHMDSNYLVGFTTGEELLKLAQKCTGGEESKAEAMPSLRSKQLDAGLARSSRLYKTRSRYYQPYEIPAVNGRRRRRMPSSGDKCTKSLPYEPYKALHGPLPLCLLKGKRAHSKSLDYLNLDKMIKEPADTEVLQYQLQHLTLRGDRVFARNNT
UniProt Q96QP1: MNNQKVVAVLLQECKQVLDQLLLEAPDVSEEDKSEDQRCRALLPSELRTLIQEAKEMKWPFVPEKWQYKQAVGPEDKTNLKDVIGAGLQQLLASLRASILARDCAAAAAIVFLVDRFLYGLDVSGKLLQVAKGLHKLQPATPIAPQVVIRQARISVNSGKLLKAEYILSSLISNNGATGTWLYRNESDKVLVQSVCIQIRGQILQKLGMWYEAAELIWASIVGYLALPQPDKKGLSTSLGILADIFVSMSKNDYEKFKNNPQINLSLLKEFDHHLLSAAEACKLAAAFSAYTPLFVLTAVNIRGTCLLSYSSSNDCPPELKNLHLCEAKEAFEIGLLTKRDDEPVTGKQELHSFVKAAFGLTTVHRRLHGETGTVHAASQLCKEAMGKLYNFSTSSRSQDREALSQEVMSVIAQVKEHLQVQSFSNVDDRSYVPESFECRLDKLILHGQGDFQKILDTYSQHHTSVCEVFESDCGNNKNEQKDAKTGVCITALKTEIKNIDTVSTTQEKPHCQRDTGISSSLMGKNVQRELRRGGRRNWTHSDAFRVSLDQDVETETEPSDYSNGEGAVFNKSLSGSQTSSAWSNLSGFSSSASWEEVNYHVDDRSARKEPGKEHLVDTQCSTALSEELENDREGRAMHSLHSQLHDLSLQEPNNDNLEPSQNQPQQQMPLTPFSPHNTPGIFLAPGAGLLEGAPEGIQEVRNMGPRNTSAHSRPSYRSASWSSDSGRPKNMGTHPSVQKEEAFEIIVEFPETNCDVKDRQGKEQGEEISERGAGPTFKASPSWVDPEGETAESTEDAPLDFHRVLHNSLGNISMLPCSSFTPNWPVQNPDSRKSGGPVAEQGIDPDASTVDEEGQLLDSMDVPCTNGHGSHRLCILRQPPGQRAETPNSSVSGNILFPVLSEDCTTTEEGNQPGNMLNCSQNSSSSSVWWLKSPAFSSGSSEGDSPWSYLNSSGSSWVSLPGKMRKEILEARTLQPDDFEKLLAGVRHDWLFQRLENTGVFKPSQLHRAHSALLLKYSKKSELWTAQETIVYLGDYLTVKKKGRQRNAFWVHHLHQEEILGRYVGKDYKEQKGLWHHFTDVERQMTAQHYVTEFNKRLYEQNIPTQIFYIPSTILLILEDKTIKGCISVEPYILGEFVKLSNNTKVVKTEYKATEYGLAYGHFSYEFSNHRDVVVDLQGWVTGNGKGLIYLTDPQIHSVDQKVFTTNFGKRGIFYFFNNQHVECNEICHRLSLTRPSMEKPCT

Compound: CN[C@@H]1C[C@H]2O[C@@](C)([C@@H]1OC)n1c3ccccc3c3c4c(c5c6ccccc6n2c5c31)C(=O)NC4 [staurosporine]
Test: log2 fold change of tryptic peptide abundance, ligand vs vehicle (limited proteolysis) (log2 ratio); higher = more trypsin-susceptible (destabilized)
Conditions: ligand concentration: 20 uM; sample: K562 cleared lysate; digestion: 4 min, 22 C (HT-PELSA RT4min, Orbitrap Astral)

Target | log2 fold change
HIC2 (peptide sequence: EWGKKEPVAGSPFER, peptide start residue: 338) (UniProt Q96JB3) | -0.156
RPS6KC1 (peptide sequence: RNPEDVQEIIVWK, peptide start residue: 40) (UniProt Q96S38) | -0.459
DDRGK1 (peptide sequence: EHEEYLK, peptide start residue: 185) (UniProt Q96HY6) | 0.555
BBS4 (peptide sequence: TQFPVSTESQKPR, peptide start residue: 10) (UniProt Q96RK4) | -0.275
NSL1 (peptide sequence: IHQEVFSSCHR, peptide start residue: 216) (UniProt Q96IY1) | 0.242
AJUBA (peptide sequence: LYAQRPAGFGCQESR, peptide start residue: 214) (UniProt Q96IF1) | -0.137
CDK5RAP3 (peptide sequence: WQSLVLTIR, peptide start residue: 30) (UniProt Q96JB5) | 0.409
FAM111A (peptide sequence: KAESPEYVHMYTQR, peptide start residue: 505) (UniProt Q96PZ2) | 0.563
C5orf30 (peptide sequence: ALHGPLPLCLLK, peptide start residue: 148) (UniProt Q96GV9) | 0.318
ALPK1 (peptide sequence: VVAVLLQECK, peptide start residue: 6) (UniProt Q96QP1) | 0.168
